Laboratory results published in patent publication US12729225B2, “Non-canonical SWI/SNF complex and uses thereof” (Dana-Farber Cancer Institute, Inc., priority 2018, dated 2026).

Tested on: mSWI/SNF complexes
Test: mSWI/SNF complex purification with HA-tagged baits and mass spectrometry (peptide counts)
Set-up: species or system human
[1] = 293_HA-BRD7: HA-BRD7 bait purification, total peptide count per co-purified protein
[2] = 293_HA-BRD7: HA-BRD7 bait purification, unique peptide count per co-purified protein
[3] = total peptide count of the co-purified protein, 293_HA-BRD9 (HA-BRD9 bait, mass spectrometry), Table 3b
[4] = unique peptide count of the co-purified protein, 293_HA-BRD9 (HA-BRD9 bait, mass spectrometry), Table 3b
[5] = 293_HA-BRD7 bait purification, mass spectrometry, total peptides per co-purified protein
[6] = 293_HA-BRD7 bait purification, mass spectrometry, unique peptides per co-purified protein

Molecule	Total [1]	Unique [2]	Total [3]	Unique [4]	Total (293_HA-DPF2 purification, total peptides)	Unique (293_HA-DPF2 purification, unique peptides)	Total [5]	Unique [6]
UQCRC2 (protein, UniProt P22695 15-453, looked up) Cytochrome b-c1 complex …: SLKVAPKVKATAAPAGAPPQPQDLEFTKLPNGLVIASLENYSPVSRIGLFIKAGSRYEDFSNLGTTHLLRLTSSLTTKGASSFKITRGIEAVGGKLSVTATRENMAYTVECLRGDVDILMEFLLNVTTAPEFRRWEVADLQPQLKIDKAVAFQNPQTHVIENLHAAAYRNALANPLYCPDYRIGKVTSEELHYFVQNHFTSARMALIGLGVSHPVLKQVAEQFLNMRGGLGLSGAKANYRGGEIREQNGDSLVHAAFVAESAVAGSAEANAFSVLQHVLGAGPHVKRGSNTTSHLHQAVAKATQQPFDVSAFNASYSDSGLFGIYTISQATAAGDVIKAAYNQVKTIAQGNLSNTDVQAAKNKLKAGYLMSVESSECFLEEVGSQALVAGSYMPPSTVLQQIDSVANADIINAAKKFVSGQKSMAASGNLGHTPFVDEL	12	11	2	1	–	–	–	–
BCAR1 (protein, UniProt P56945 1-870, looked up) Breast cancer anti-estrogen …: MNHLNVLAKALYDNVAESPDELSFRKGDIMTVLEQDTQGLDGWWLCSLHGRQGIVPGNRLKILVGMYDKKPAGPGPGPPATPAQPQPGLHAPAPPASQYTPMLPNTYQPQPDSVYLVPTPSKAQQGLYQVPGPSPQFQSPPAKQTSTFSKQTPHHPFPSPATDLYQVPPGPGGPAQDIYQVPPSAGMGHDIYQVPPSMDTRSWEGTKPPAKVVVPTRVGQGYVYEAAQPEQDEYDIPRHLLAPGPQDIYDVPPVRGLLPSQYGQEVYDTPPMAVKGPNGRDPLLEVYDVPPSVEKGLPPSNHHAVYDVPPSVSKDVPDGPLLREETYDVPPAFAKAKPFDPARTPLVLAAPPPDSPPAEDVYDVPPPAPDLYDVPPGLRRPGPGTLYDVPRERVLPPEVADGGVVDSGVYAVPPPAEREAPAEGKRLSASSTGSTRSSQSASSLEVAGPGREPLELEVAVEALARLQQGVSATVAHLLDLAGSAGATGSWRSPSEPQEPLVQDLQAAVAAVQSAVHELLEFARSAVGNAAHTSDRALHAKLSRQLQKMEDVHQTLVAHGQALDAGRGGSGATLEDLDRLVACSRAVPEDAKQLASFLHGNASLLFRRTKATAPGPEGGGTLHPNPTDKTSSIQSRPLPSPPKFTSQDSPDGQYENSEGGWMEDYDYVHLQGKEEFEKTQKELLEKGSITRQGKSQLELQQLKQFERLEQEVSRPIDHDLANWTPAQPLAPGRTGGLGPSDRQLLLFYLEQCEANLTTLTNAVDAFFTAVATNQPPKIFVAHSKFVILSAHKLVFIGDTLSRQAKAADVRSQVTHYSNLLCDLLRGIVATTKAAALQYPSPSAAQDMVERVKELGHSTQQFRRVLGQLAAA	15	11	1	1	–	–	–	–
PIP (protein, UniProt P12273 29-146, looked up) Prolactin-inducible protein: QDNTRKIIIKNFDIPKSVRPNDEVTAVLAVQTELKECMVVKTYLISSIPLQGAFNYKYTACLCDDNPKTFYWDFYTNRTVQIAAVVDVIRELGICPDDAAVIPIKNNRFYTIEILKVE	–	–	1	1	1	1	–	–
LACRT (protein, UniProt Q9GZZ8 20-138, looked up) Extracellular glycoprotein …: EDASSDSTGADPAQEAGTSKPNEEISGPAEPASPPETTTTAQETSAAAVQGTAKVTSSRQELNPLKSIVEKSILLTEQALAKAGKGMHGGVPGGKQFIENGSEFAQKLLKKFSLLKPWA	–	–	1	1	–	–	–	–
TUBB4A (protein, UniProt P04350 1-444, looked up) Tubulin beta-4A chain: MREIVHLQAGQCGNQIGAKFWEVISDEHGIDPTGTYHGDSDLQLERINVYYNEATGGNYVPRAVLVDLEPGTMDSVRSGPFGQIFRPDNFVFGQSGAGNNWAKGHYTEGAELVDAVLDVVRKEAESCDCLQGFQLTHSLGGGTGSGMGTLLISKIREEFPDRIMNTFSVVPSPKVSDTVVEPYNATLSVHQLVENTDETYCIDNEALYDICFRTLKLTTPTYGDLNHLVSATMSGVTTCLRFPGQLNADLRKLAVNMVPFPRLHFFMPGFAPLTSRGSQQYRALTVPELTQQMFDAKNMMAACDPRHGRYLTVAAVFRGRMSMKEVDEQMLSVQSKNSSYFVEWIPNNVKTAVCDIPPRGLKMAATFIGNSTAIQELFKRISEQFTAMFRRKAFLHWYTGEGMDEMEFTEAESNMNDLVSEYQQYQDATAEEGEFEEEAEEEVA	4	4	1	1	–	–	–	–
GLYR1 (protein, UniProt Q49A26 1-553, looked up) Cytokine-like nuclear factor …: MAAVSLRLGDLVWGKLGRYPPWPGKIVNPPKDLKKPRGKKCFFVKFFGTEDHAWIKVEQLKPYHAHKEEMIKINKGKRFQQAVDAVEEFLRRAKGKDQTSSHNSSDDKNRRNSSEERSRPNSGDEKRKLSLSEGKVKKNMGEGKKRVSSGSSERGSKSPLKRAQEQSPRKRGRPPKDEKDLTIPESSTVKGMMAGPMAAFKWQPTASEPVKDADPHFHHFLLSQTEKPAVCYQAITKKLKICEEETGSTSIQAADSTAVNGSITPTDKKIGFLGLGLMGSGIVSNLLKMGHTVTVWNRTAEKCDLFIQEGARLGRTPAEVVSTCDITFACVSDPKAAKDLVLGPSGVLQGIRPGKCYVDMSTVDADTVTELAQVIVSRGGRFLEAPVSGNQQLSNDGMLVILAAGDRGLYEDCSSCFQAMGKTSFFLGEVGNAAKMMLIVNMVQGSFMATIAEGLTLAQVTGQSQQTLLDILNQGQLASIFLDQKCQNILQGNFKPDFYLKYIQKDLRLAIALGDAVNHPTPMAAAANEVYKRAKALDQSDNDMSAVYRAYIH	10	10	1	1	–	–	–	–
NOP56 (protein, UniProt O00567 1-594, looked up) Nucleolar protein 56: MVLLHVLFEHAVGYALLALKEVEEISLLQPQVEESVLNLGKFHSIVRLVAFCPFASSQVALENANAVSEGVVHEDLRLLLETHLPSKKKKVLLGVGDPKIGAAIQEELGYNCQTGGVIAEILRGVRLHFHNLVKGLTDLSACKAQLGLGHSYSRAKVKFNVNRVDNMIIQSISLLDQLDKDINTFSMRVREWYGYHFPELVKIINDNATYCRLAQFIGNRRELNEDKLEKLEELTMDGAKAKAILDASRSSMGMDISAIDLINIESFSSRVVSLSEYRQSLHTYLRSKMSQVAPSLSALIGEAVGARLIAHAGSLTNLAKYPASTVQILGAEKALFRALKTRGNTPKYGLIFHSTFIGRAAAKNKGRISRYLANKCSIASRIDCFSEVPTSVFGEKLREQVEERLSFYETGEIPRKNLDVMKEAMVQAEEAAAEITRKLEKQEKKRLKKEKKRLAALALASSENSSSTPEECEEMSEKPKKKKKQKPQEVPQENGMEDPSISFSKPKKKKSFSKEELMSSDLEETAGSTSIPKRKKSTPKEETVNDPEEAGHRSGSKKKRKFSKEEPVSSGPEEAVGKSSSKKKKKFHKASQED	6	6	1	1	–	–	–	–
TUBB1 (protein, UniProt Q9H4B7 1-451, looked up) Tubulin beta-1 chain: MREIVHIQIGQCGNQIGAKFWEMIGEEHGIDLAGSDRGASALQLERISVYYNEAYGRKYVPRAVLVDLEPGTMDSIRSSKLGALFQPDSFVHGNSGAGNNWAKGHYTEGAELIENVLEVVRHESESCDCLQGFQIVHSLGGGTGSGMGTLLMNKIREEYPDRIMNSFSVMPSPKVSDTVVEPYNAVLSIHQLIENADACFCIDNEALYDICFRTLKLTTPTYGDLNHLVSLTMSGITTSLRFPGQLNADLRKLAVNMVPFPRLHFFMPGFAPLTAQGSQQYRALSVAELTQQMFDARNTMAACDLRRGRYLTVACIFRGKMSTKEVDQQLLSVQTRNSSCFVEWIPNNVKVAVCDIPPRGLSMAATFIGNNTAIQEIFNRVSEHFSAMFKRKAFVHWYTSEGMDINEFGEAENNIHDLVSEYQQFQDAKAVLEEDEEVTEEAEMEPEDKGH	–	–	1	1	–	–	4	3
ATP2A2 (protein, UniProt P16615 1-1042, looked up) Sarcoplasmic/endoplasmic …: MENAHTKTVEEVLGHFGVNESTGLSLEQVKKLKERWGSNELPAEEGKTLLELVIEQFEDLLVRILLLAACISFVLAWFEEGEETITAFVEPFVILLILVANAIVGVWQERNAENAIEALKEYEPEMGKVYRQDRKSVQRIKAKDIVPGDIVEIAVGDKVPADIRLTSIKSTTLRVDQSILTGESVSVIKHTDPVPDPRAVNQDKKNMLFSGTNIAAGKAMGVVVATGVNTEIGKIRDEMVATEQERTPLQQKLDEFGEQLSKVISLICIAVWIINIGHFNDPVHGGSWIRGAIYYFKIAVALAVAAIPEGLPAVITTCLALGTRRMAKKNAIVRSLPSVETLGCTSVICSDKTGTLTTNQMSVCRMFILDRVEGDTCSLNEFTITGSTYAPIGEVHKDDKPVNCHQYDGLVELATICALCNDSALDYNEAKGVYEKVGEATETALTCLVEKMNVFDTELKGLSKIERANACNSVIKQLMKKEFTLEFSRDRKSMSVYCTPNKPSRTSMSKMFVKGAPEGVIDRCTHIRVGSTKVPMTSGVKQKIMSVIREWGSGSDTLRCLALATHDNPLRREEMHLEDSANFIKYETNLTFVGCVGMLDPPRIEVASSVKLCRQAGIRVIMITGDNKGTAVAICRRIGIFGQDEDVTSKAFTGREFDELNPSAQRDACLNARCFARVEPSHKSKIVEFLQSFDEITAMTGDGVNDAPALKKAEIGIAMGSGTAVAKTASEMVLADDNFSTIVAAVEEGRAIYNNMKQFIRYLISSNVGEVVCIFLTAALGFPEALIPVQLLWVNLVTDGLPATALGFNPPDLDIMNKPPRNPKEPLISGWLFFRYLAIGCYVGAATVGAAAWWFIAADGGPRVSFYQLSHFLQCKEDNPDFEGVDCAIFESPYPMTMALSVLVTIEMCNALNSLSENQSLLRMPPWENIWLVGSICLSMSLHFLILYVEPLPLIFQITPLNVTQWLMVLKISLPVILMDETLKFVARNYLEPGKECVQPATKSCSFSACTDGISWPFVLLIMPLVIWVYSTDTNFSDMFWS	15	13	2	2	–	–	–	–
PRSS3 (protein, UniProt P35030 81-304, looked up) Trypsin-3: IVGGYTCEENSLPYQVSLNSGSHFCGGSLISEQWVVSAAHCYKTRIQVRLGEHNIKVLEGNEQFINAAKIIRHPKYNRDTLDNDIMLIKLSSPAVINARVSTISLPTTPPAAGTECLISGWGNTLSFGADYPDELKCLDAPVLTQAECKASYPGKITNSMFCVGFLEGGKDSCQRDSGGPVVCNGQLQGVVSWGHGCAWKNRPGVYTKVYNYVDWIKDTIAANS	–	–	1	1	–	–	–	–
PRDX1 (protein, UniProt Q06830 2-199, looked up) Peroxiredoxin-1: SSGNAKIGHPAPNFKATAVMPDGQFKDISLSDYKGKYVVFFFYPLDFTFVCPTEIIAFSDRAEEFKKLNCQVIGASVDSHFCHLAWVNTPKKQGGLGPMNIPLVSDPKRTIAQDYGVLKADEGISFRGLFIIDDKGILRQITVNDLPVGRSVDETLRLVQAFQFTDKHGEVCPAGWKPGSDTIKPDVQKSKEYFSKQK	–	–	1	1	–	–	2	2
